According to PMC12093383, “Protoporphyrin IX-Derived Ruthenium(II) Complexes for Photodynamic Therapy in Gastric Cancer Cells” (Inorganic Chemistry, 2025):

assay: Singlet oxygen formation quantum yield, DPBF trap; settings: DMSO, white light, relative to verteporfin, N = 3

Point of comparison: `C=Cc1c(C)c2cc3nc(cc4[nH]c(cc5nc(cc1[nH]2)C1(C)C5=CCC(C(=O)OC)=C1C(=O)OC)c(C)c4CCC(=O)OCc1ccccc1)C(CCC(=O)OCc1ccccc1)=C3C` (stereo not drawn) [4B], “ΦΔ 1O2 quantum yield” value 33 ± 2.517%. Against it:
- C=CC1=C(C)c2cc3[nH]c(cc4nc(cc5[nH]c(cc1n2)c(C)c5CCC(=O)OC)C(CCC(=O)OC)=C4C)c(C)c3C=C [compound 1] — within error, 34 ± 0.764%
- C=CC1=C(C)c2cc3[nH]c(cc4nc(cc5[nH]c(cc1n2)c(C)c5CCC(=O)OCc1ccccc1)C(CCC(=O)OCc1ccccc1)=C4C)c(C)c3C=C [compound 2] — within error, 34 ± 1.528%
- C=Cc1c(C)c2cc3nc(cc4[nH]c(cc5nc(cc1[nH]2)C(C)=C5CCC(=O)OC)c(CCC(=O)OC)c4C)C1(C)C3=CCC(C(=O)OC)=C1C(=O)OC (stereo not drawn) [3A] — higher, 46 ± 2.082%
- C=Cc1c(C)c2cc3nc(cc4[nH]c(cc5nc(cc1[nH]2)C(C)=C5CCC(=O)OCc1ccccc1)c(CCC(=O)OCc1ccccc1)c4C)C1(C)C3=CCC(C(=O)OC)=C1C(=O)OC (stereo not drawn) [4A] — within error, 34 ± 1.041%
- C=Cc1c(C)c2cc3nc(cc4[nH]c(cc5nc(cc1[nH]2)C1(C)C5=CCC(C(=O)OC)=C1C(=O)OC)c(C)c4CCC(=O)OC)C(CCC(=O)OC)=C3C (stereo not drawn) [3B] — higher, 42 ± 2.500%
